Taken from: PubChem BioAssay AID504764 (Drosophila RNAi Screening Center, 2011)
Assay: 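Knock-downs that raise or lower a Notch target reporter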 (primary screen). System: Drosophila Kc167 cells. Reagent: long dsRNA against Drosophila genes. Time to read-out: about 5 days (4 days dsRNA, then 24 h after transfection). Treatment: transfection of constitutively active membrane-tethered Notch lacking the extracellular domain, read 24 h later. Measurement: 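Light from a Notch-responsive E(spl)m3 luciferase reporter under active Notch, with control-promoter and no-Notch reporter wells to normalise; raw counts from paired wells a and b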. Reading the numbers: induced reporter light, run 1, well a and induced reporter light, run 1, well b: higher = more light from the Notch target reporter with active Notch; control promoter light, run 1, well a and control promoter light, run 1, well b: higher = more light from the viral control promoter (cell number, transfection, viability); uninduced reporter light, run 1, well a: higher = more light from the Notch target reporter without active Notch. Rule for the call: 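Wells with low control signal or poorly matching duplicates excluded; duplicates averaged; per source plate, z beyond ±2 for induced/control log2 ratio or beyond ±1.8 for induced/uninduced marks a hit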. Meaning of the calls: active = modifier hit (raised or lowered Notch signal); inactive = not a hit.
In all, the deposit lists about 22,000 reagents; this is a random part of those with a known target gene and a result. Of all reagents, 403 (1.9%) got an active call. 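Unnormalised raw counts per well; ratio z-scores behind the hit calls and whether each hit raises or lowers signal are not deposited.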 Names joined by + are all predicted targets of the reagent. Reagent sequences are not shown. Not stated in the record: the amount of reagent.

| target gene | amplicon | induced reporter light, run 1, well a | induced reporter light, run 1, well b | control promoter light, run 1, well a | control promoter light, run 1, well b | uninduced reporter light, run 1, well a | call |
| --- | --- | --- | --- | --- | --- | --- | --- |
| CG42288 | DRSC06381 | 82710 | 96925 | 1.31e5 | 1.19e5 | 8785 | inactive |
| CG32536 + CG32537 | DRSC20074 | 1.27e5 | 1.14e5 | 1.46e5 | 1.92e5 | 13865 | inactive |
| CG14088 | DRSC10092 | 1.14e5 | 1.30e5 | 1.92e5 | 1.25e5 | 9195 | inactive |
| blow | DRSC07586 | 2.37e5 | 2.14e5 | 2.53e5 | 2.43e5 | 17145 | inactive |
| CG7742 | DRSC03066 | 1.71e5 | 1.64e5 | 1.46e5 | 1.83e5 | 15680 | inactive |
| CG12279 | DRSC14495 | 51075 | 50580 | 60745 | 49625 | 2870 | inactive |
| CG31157 | DRSC21832 | – | – | – | – | – | inactive |
| CG6978 | DRSC18409 | 83835 | 86470 | 1.39e5 | 1.06e5 | 6445 | inactive |
| CG14630 | DRSC18166 | 99475 | 1.10e5 | 1.68e5 | 1.80e5 | 8845 | inactive |
| CG14630 | DRSC18653 | 1.26e5 | 1.19e5 | 1.97e5 | 2.06e5 | 8040 | inactive |
| CG13390 | DRSC02261 | 1.57e5 | 1.88e5 | 1.03e5 | 1.30e5 | 23915 | inactive |
| Pop5 | DRSC10074 | 2.25e5 | 1.91e5 | 3.47e5 | 2.73e5 | 11480 | inactive |
| Srp72 | DRSC15800 | 71120 | 79690 | 1.28e5 | 1.23e5 | 6170 | inactive |
| Twdlbeta | DRSC07310 | 97820 | 1.04e5 | 1.21e5 | 1.24e5 | 8625 | inactive |
| snoRNA:Me28S-C3420b + RpS11 | DRSC07396 | 1.05e5 | 1.12e5 | 1.78e5 | 1.48e5 | 10690 | inactive |

Reprinted from above (2 entries):
| target gene | amplicon | induced reporter light, run 1, well a | induced reporter light, run 1, well b | control promoter light, run 1, well a | control promoter light, run 1, well b | uninduced reporter light, run 1, well a | call |
| --- | --- | --- | --- | --- | --- | --- | --- |
| CG14630 | DRSC18166 | 99475 | 1.10e5 | 1.68e5 | 1.80e5 | 8845 | inactive |
| CG14630 | DRSC18653 | 1.26e5 | 1.19e5 | 1.97e5 | 2.06e5 | 8040 | inactive |

The list goes on:
| target gene | amplicon | induced reporter light, run 1, well a | induced reporter light, run 1, well b | control promoter light, run 1, well a | control promoter light, run 1, well b | uninduced reporter light, run 1, well a | call |
| --- | --- | --- | --- | --- | --- | --- | --- |
| ara | DRSC11322 | 11605 | 15192 | 19680 | 19730 | 1455 | inactive |
| CG2147 | DRSC18211 | 1.94e5 | 2.16e5 | 2.42e5 | 2.47e5 | 13620 | inactive |
| CREG | DRSC16595 | 1.98e5 | 1.66e5 | 1.66e5 | 1.78e5 | 14515 | inactive |
| CG16743 | DRSC02514 | 62020 | 75915 | 34475 | 37380 | 9700 | inactive |
| Sec5 | DRSC00714 | 2.26e5 | 2.16e5 | 2.10e5 | 2.26e5 | 18060 | inactive |
| CG10681 | DRSC09777 | 1.11e5 | 96785 | 94015 | 40955 | 10310 | inactive |
| PEK | DRSC12361 | 1.37e5 | 1.38e5 | 87155 | 71540 | 9465 | inactive |
| CG13029 | DRSC09909 | 2.22e5 | 2.26e5 | 2.84e5 | 2.66e5 | 11255 | inactive |
| nAChRbeta3 | DRSC00325 | 2.04e5 | 2.14e5 | 2.29e5 | 2.10e5 | 17870 | inactive |
| CG12105 | DRSC08255 | 97780 | 1.05e5 | 1.61e5 | 1.91e5 | 9665 | inactive |
| CG13083 | DRSC02187 | 57285 | 24655 | 22115 | 31885 | 2275 | inactive |
| CG11007 | DRSC06023 | 85730 | 97660 | 1.67e5 | 2.00e5 | 7230 | inactive |
| CG33332 | DRSC15504 | 2.05e5 | 2.45e5 | 2.48e5 | 2.45e5 | 20990 | inactive |
| CG42594 | DRSC18053 | 6550 | 6685 | 11150 | 11160 | 3765 | inactive |
| CG42594 | DRSC18408 | 1.44e5 | 1.42e5 | 2.95e5 | 2.32e5 | 9760 | inactive |
| fal | DRSC11087 | 1.31e5 | 1.29e5 | 1.03e5 | 1.35e5 | 10470 | inactive |
| CG13622 | DRSC14624 | 1.70e5 | 1.38e5 | 1.93e5 | 1.79e5 | 14015 | inactive |
| loco | DRSC15202 | 1.42e5 | 1.65e5 | 1.96e5 | 1.52e5 | 13250 | inactive |
| loco | DRSC16989 | 34595 | 40615 | 42835 | 39975 | 3142 | inactive |
